This note sets out measurements from PubChem BioAssay AID2685 (National Center for Advancing Translational Sciences (NCATS), 2010).

This test in a line: qHTS Assay for Lipid Storage Modulators in Drosophila S3 Cells.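 On cell number change: cells counted by Cell Tracker Red CMTPX staining in the red channel.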 The conditions noted are these: BODIPY lipid droplet fluorescence, 18-24 h; for cell number change: measured here: cell count max response, cells fed with added oleic acid. Summed up: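 Laser-scanning cytometry quantifies lipid droplet accumulation (500–530 nm total intensity; droplet/cell object ratio) in oleic acid-fed (400 uM added) Drosophila S3 cells treated with a concentration series. 20 uM Triacsin C defined 100% inhibition.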
For orientation: Quantitative high-throughput screening tests each substance at several concentrations.

[1] abbreviates: measured here: lipid fluorescence (Fed channel) AC50, cells fed with added oleic acid.
Where [2] appears, read: measured here: cell number channel AC50, cells fed with added oleic acid.

The list shows a part of the results. Further columns of the screen follow, without active or inactive calls. Most of these compounds were active or inconclusive in the main read-out, so they are no random draw. Potencies come from curve fits of mixed quality, noted in brackets.

Turning to `COc1ccc(S(=O)(=O)N2CCCCCC2)cc1C(=O)NCCc1ccccc1`, the cell number change is -8.52%. Take `CCOC(=O)CNC(=O)CSc1nc(C)cc(C)c1C#N`: the cell number change worked out at 7.04%. In general, AC50 refers to the concentration at which the activity in the assay is half-maximal. Turning to `Cc1cccc(NC(=O)c2ccc([N+](=O)[O-])cc2Cl)n1`, the cell number change came out at 17.2%. For the same compound, under setting [1], the concentration at half-maximal activity (AC50) was 0.651 µM [falling, full curve, poor fit]. Turning to `NC(=O)N/N=C/c1ccccc1OC(=O)c1ccccc1Br`, the cell number change is -49.4%. The concentration at half-maximal activity (AC50) under setting [2] is 29.1 µM [falling, single point]. Under setting [1], the AC50 is 18.4 µM [falling, single point].

Consider `O=C(Nc1ccc(Cl)cc1)C(Cl)C(=O)c1ccccc1` (stereo not drawn), for which the cell number change stood at 27.9%. The AC50 under setting [2] is 0.259 µM [rising, full curve, poor fit]. As to `C=CCn1c(C)cc(C(=O)COC(=O)CNC(=O)c2ccccc2)c1C`, the cell number change is -1.79%. Moreover, under setting [1], the AC50 was 0.0164 µM [falling, full curve, poor fit].

Take `COC(=O)CSc1ccc2nnc(CCNS(=O)(=O)c3ccccc3)n2n1`: the cell number change was -19.2%. Moreover, the concentration at half-maximal activity (AC50) under setting [2] is 2.59 µM [falling, single point]. On to `COC(=O)CN(n1cnnc1)S(=O)(=O)c1ccc(C)cc1`, for which the cell number change is -2.12%. For the same compound, the AC50 under setting [1] is 0.146 µM [falling, full curve, poor fit]. For `COc1ccc(Cl)cc1NC(=O)CSc1nc(NS(=O)(=O)c2ccccc2)cc(=O)[nH]1`, the cell number change was -27.6%. The AC50 under setting [2] is 1.84 µM [falling, partial curve]. On to `Cn1nnnc1SCC(=O)Nc1ccccc1[N+](=O)[O-]`, for which the cell number change was 14.5%. For the same compound, the AC50 under setting [1] was 1.84 µM [rising, partial curve, poor fit]. `Cc1ccc(NC(=O)CNC(=O)CC23CC4CC(CC(C4)C2)C3)c(O)c1`: the cell number change was -58.1%. Also, the AC50 under setting [2] was 2.06 µM [falling, full curve, poor fit]. Besides, under setting [1], the half-maximal activity concentration (AC50) was 7.31 µM [falling, partial curve]. In the case of `Cn1c(=O)c(NC(=O)c2ccccc2)c2n(c1=S)CCCCC2`, the AC50 under setting [1] was 0.461 µM [falling, single point]. On to `O=C(Nc1ccc(Oc2nnc(-c3ccccc3)c3ccccc23)cc1)c1ccccc1`, for which the cell number change is 14.8%. Same read-out and setting: the figure for `COc1ccc(C(=O)COC(=O)CCc2nc3ccccc3[nH]c2=O)cc1Br` is 17.2%. Consider `CCC(=O)Nc1cccc(-c2nc3ccccc3o2)c1`, for which the concentration at half-maximal activity (AC50) under setting [1] is 0.651 µM [rising, single point].

For `CCOC(=O)c1cnc(N)nc1C(F)(F)F`, the cell number change came to 32.4%. In addition, the half-maximal activity concentration (AC50) under setting [1] is 14.6 µM [rising, partial curve, poor fit].

In the case of `Cc1cc2cccc(C)c2nc1SCC(=O)N(C)c1nc(-c2ccccc2)cs1`, the cell number change is 17.8%. For `CCNC(=O)CN1C(=O)NC2(CCOc3ccccc32)C1=O` (stereo not drawn), the cell number change came to 16.8%. The AC50 under setting [1] was 6.51 µM [falling, single point]. `CC(C)(C)C(=O)/C(=C/c1cccc([N+](=O)[O-])c1)n1cncn1`: the cell number change was -83.8%. Besides, the AC50 under setting [2] was 20.6 µM [falling, single point]. For the same compound, the AC50 under setting [1] is 20.6 µM [falling, single point]. For the compound `CCOC(=O)c1c(C)[nH]c(C(=O)COC(=O)COc2ccc(OC)cc2)c1C`, the cell number change was 9.5%. Moreover, the half-maximal activity concentration (AC50) under setting [1] was 20.6 µM [rising, partial curve]. Consider `Cc1nc2ccccc2c(=O)n1-c1cccc(NC(=O)c2cccs2)c1`, for which the cell number change was -17.4%.

As for `CC1C/C(=C\c2cccnc2)C(=O)/C(=C/c2cccnc2)C1` (stereo not drawn), the AC50 under setting [1] was 5.8 µM [falling, full curve]. Consider `CCc1ccc(NC(=O)CN(c2ccc(OC)cc2)S(=O)(=O)c2c(C)nn(C)c2C)cc1`, for which the cell number change was 1.47%. Consider `O=[n+]1cc(-c2cccc3ccccc23)n([O-])c2c1CCC2`, for which the cell number change is -104%. The AC50 under setting [2] was 23.1 µM [falling, single point]. In addition, under setting [1], the AC50 is 23.1 µM [falling, single point]. Regarding `COc1cccc(Cl)c1NC(=O)N1CCc2c([nH]c3ccccc23)C1C(F)(F)F` (stereo not drawn), the cell number change was found to be 13.1%. Also, the AC50 under setting [2] was 0.00517 µM [rising, full curve, poor fit]. For the same compound, the AC50 under setting [1] was 5.17 µM [rising, partial curve].

For the compound `CC(=O)Nc1cccc(OCC(=O)Nc2ccc(F)cc2)c1`, the cell number change is 1.75%. The AC50 under setting [1] was 29.1 µM [rising, single point]. For the compound `O=C(NCCN1CCOCC1)c1ccc([N+](=O)[O-])cc1[N+](=O)[O-]`, the cell number change worked out at 8.39%. In addition, the AC50 under setting [1] was 7.31 µM [rising, full curve, poor fit]. On to `Cc1ccc(S(=O)(=O)/C(C#N)=C/c2c(N3CCOCC3)nc3ccccn3c2=O)cc1`, for which the AC50 under setting [1] is 0.58 µM [rising, single point]. `COc1cc([N+](=O)[O-])ccc1NC(=O)CCCOc1cccc(C)c1`: the cell number change was determined as 19.8%. In the case of `CCSc1nnc2n(-c3ccc(OC)cc3)c(=O)c3c4c(sc3n12)CCCC4`, the cell number change came to 74.1%. For the same compound, the AC50 under setting [2] was 3.66 µM [rising, partial curve]. Further, the AC50 under setting [1] was 3.66 µM [rising, partial curve].

Regarding `c1ccc(Nc2nc(NCC3CCCO3)c3ccccc3n2)cc1` (stereo not drawn), the cell number change was -58.5%. Also, the AC50 under setting [2] was 32.6 µM [falling, single point]. Besides, the AC50 under setting [1] was 32.6 µM [falling, partial curve, poor fit]. In the case of `Cc1cccc(NC(=O)N2CCCC2C(=O)NCc2cccs2)c1` (stereo not drawn), the cell number change came to 33.5%. The AC50 under setting [2] is 18.4 µM [rising, partial curve, poor fit]. In the case of `Cn1c(/C=N/O)nc2ccccc21`, the cell number change was 0.534%. Regarding `Oc1ccc2ccccc2c1C=Nc1cc(C(F)(F)F)ccc1N1CCCC1`, the cell number change was -1.27%. In addition, the half-maximal activity concentration (AC50) under setting [1] is 29.1 µM [falling, single point]. On to `O=C(Cc1cccc2ccccc12)NC(NC(=S)Nc1ccccc1Cl)C(Cl)(Cl)Cl` (stereo not drawn), for which the cell number change is -35.4%. Also, the AC50 under setting [2] is 7.31 µM [falling, partial curve, poor fit]. On to `CCN(CC)CCCOc1ccc(C)cc1Br`, for which the cell number change was -31.4%. Further, the AC50 under setting [2] is 0.0092 µM [falling, full curve, poor fit]. The AC50 under setting [1] was 3.66 µM [falling, partial curve]. Take `CCOC(=O)c1c(NC(=O)C(C)N2CCN(C(=O)c3ccco3)CC2)sc2c1CCCC2` (stereo not drawn): the cell number change was -138%. Further, the AC50 under setting [2] was 18.4 µM [falling, single point]. In addition, under setting [1], the AC50 is 29.1 µM [falling, single point]. For the compound `Cc1ccc(NC(=O)c2onc(C)c2Cl)cc1`, the cell number change was determined as 29.6%. Moreover, the AC50 under setting [1] is 14.6 µM [rising, single point]. As to `CCN(CC(=O)Nc1cc(S(=O)(=O)N2CCCCC2)ccc1C)Cc1ccccc1`, the cell number change came out at 53.5%. For the same compound, the AC50 under setting [2] was 16.4 µM [rising, single point].

On to `COc1ccc(CNC(=O)c2cc(C(=O)C3CC3)c[nH]2)cc1`, for which the cell number change is 3.29%. Further, the AC50 under setting [1] was 0.146 µM [rising, single point]. With `CCC(C)n1cnc2c(=O)oc3ccccc3c21` (stereo not drawn), the cell number change was 10.9%. For the same compound, under setting [1], the AC50 was 20.6 µM [rising, partial curve, poor fit].

Regarding `CC1(C)C2CCC1(CS(=O)(=O)N1CCCc3ccccc31)C(=O)C2` (stereo not drawn), the cell number change was -7.71%. Besides, the AC50 under setting [2] is 0.164 µM [falling, full curve, poor fit]. Consider `O=C(CN1CCOCC1)Nc1ccc(C2CCCCC2)cc1`, for which the cell number change was -30.8%. Besides, under setting [2], the AC50 was 29.1 µM [falling, single point]. On to `CC1CCc2c(sc(NC(=O)c3ccc(-c4ccccc4[N+](=O)[O-])o3)c2C#N)C1` (stereo not drawn), for which the cell number change came to 22.2%. In the case of `CN(C)C(=O)NC1c2ccccc2-c2ccccc21`, the cell number change stood at 20.6%. Moreover, the AC50 under setting [1] is 6.51 µM [rising, full curve]. Take `CCOc1ccc(Nc2nc(Cc3nnc(SCC(=O)c4ccc(C)c(C)c4)o3)cs2)cc1`: the cell number change is -23.9%. Moreover, under setting [1], the AC50 was 2.91 µM [rising, single point].

Consider `CCc1ccc(N2CC(C(=O)N3CCN(c4ccccn4)CC3)CC2=O)cc1` (stereo not drawn), for which the cell number change is 3.95%. Take `COc1ccc(CNC(=O)CN(c2ccc(OC)cc2)S(=O)(=O)c2c(C)[nH]c(=O)[nH]c2=O)cc1`: the cell number change came to 23.6%. Further, under setting [2], the AC50 is 0.58 µM [rising, full curve, poor fit]. The AC50 under setting [1] is 3.26 µM [falling, full curve, poor fit].

Take `O=c1[nH]cc(C(F)(F)F)cc1NS(=O)(=O)c1ccc([N+](=O)[O-])cc1`: the cell number change turned out to be 72.6%. The AC50 under setting [2] is 29.1 µM [rising, single point]. As for `COc1ccccc1N1CCN(C(=O)c2cc3c(C)nc4ccccc4c3o2)CC1`, the cell number change is -35.9%. The AC50 under setting [2] is 8.2 µM [falling, partial curve, poor fit]. Further, the AC50 under setting [1] is 2.59 µM [falling, partial curve]. With `Cc1ccc(-n2c(-c3ccco3)nc3c(cnn3-c3ccc(C)cc3)c2=O)cc1`, the cell number change is -15.3%. Under setting [1], the concentration at half-maximal activity (AC50) is 0.00461 µM [falling, full curve, poor fit].

Regarding `CC1(C)CC(NC(=O)C23CCC(C)(C(=O)C2)C3(C)C)CC(C)(C)N1` (stereo not drawn), the cell number change was -8.26%. Also, under setting [1], the AC50 was 0.103 µM [falling, full curve]. Take `O=C(/C=C/c1cccnc1)c1cccc(O)c1`: the cell number change amounted to 40.8%. In addition, the AC50 under setting [2] is 29.1 µM [rising, single point]. Also, the AC50 under setting [1] was 35.5 µM [rising, single point]. Take `CC(OC(=O)c1ccc2c(=O)n3c(nc2c1)CCCCC3)C(=O)Nc1ncc(Cl)cc1Cl` (stereo not drawn): the cell number change was -14.8%. Consider `C=CCN1C(=Nc2ccccc2)SC/C1=C\C(=O)OC`, for which the cell number change is -1.69%. The AC50 under setting [1] is 20.6 µM [rising, single point].

For the compound `FC(F)(F)c1nnc2c(Sc3ccccn3)nc3ccccc3n12`, the cell number change turned out to be 18%.

For `O=C(c1sc2ccccc2c1Cl)N1CCN(c2ccccn2)CC1`, the cell number change came out at 30.3%. Moreover, the concentration at half-maximal activity (AC50) under setting [1] is 0.501 µM [rising, single point]. Take `CCS(=O)(=O)c1cc([N+](=O)[O-])c(Sc2ccccc2NC(C)=O)s1`: the cell number change is -30.6%. Besides, the AC50 under setting [2] is 29.1 µM [falling, single point]. For the same compound, the AC50 under setting [1] is 29.1 µM [falling, single point].

As for `COc1cccc(C(=O)/C=C2\Sc3ccccc3N2C)c1`, the cell number change amounted to 28.2%. Under setting [2], the AC50 is 1.16 µM [rising, full curve]. Besides, the concentration at half-maximal activity (AC50) under setting [1] is 1.46 µM [rising, full curve]. With `Cc1cc(C)nc(N/N=C/C(Cl)=C/c2ccccc2)n1`, the cell number change amounted to 98.6%. Further, the concentration at half-maximal activity (AC50) under setting [2] was 9.2 µM [rising, partial curve]. The AC50 under setting [1] is 2.06 µM [rising, partial curve].
